Experimental data taken from patent US20240262835A1, “PRMT5 INHIBITING COMPOUNDS AND USES THEREOF” (ANTENGENE DISCOVERY LIMITED, priority 2023, published 2024).

How the values were obtained:
[1] = in vitro; settings: human, microsomes
[2] = in vitro; settings: rat, microsomes
[3] = in vitro; settings: dog, microsomes
[4] = in vitro; settings: cynomolgus monkey, microsomes

Molecule `CCCNCC(O)COc1ccccc1C(=O)CCc1ccccc1` (centres unmarked) [Ref. 6, Propafenone] has a CLint scaled at 1 μM [1] of 246 mL/min/kg, a microsomal CLint at 1 μM [1] of 273 µL/min/mg and a CLint scaled at 1 μM [2] of 1830 mL/min/kg. For the same molecule, the microsomal CLint at 1 μM [2] was 1020 µL/min/mg, the CLint scaled at 1 μM [3] was 440 mL/min/kg and the microsomal CLint at 1 μM [3] was 306 µL/min/mg. It also gave a CLint scaled at 1 μM [4] of 1440 mL/min/kg and a microsomal CLint at 1 μM [4] of 1070 µL/min/mg.
